Experimental findings from PubChem BioAssay AID2685 (National Center for Advancing Translational Sciences (NCATS), 2010) are described below.

The list shows a part of the results. Further columns of the screen follow, without active or inactive calls. The list favours compounds with an active or inconclusive main result. Words in brackets tell the shape of the fitted curve; partial curves, single points and poor fits give uncertain potencies.

The assay in a line: qHTS Assay for Lipid Storage Modulators in Drosophila S3 Cells.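 As to cell number change: cells counted by Cell Tracker Red CMTPX staining in the red channel.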 Conditions: BODIPY lipid droplet fluorescence, 18-24 h; for cell number change: measured here: cell count max response, cells fed with added oleic acid. In outline: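 Drosophila S3 cells got compounds at several concentrations plus oleic acid (400 uM solution). Laser-scanning cytometry with 488 nm excitation read lipid droplets at 500-530 nm and cells at 575-640 nm. Percent activity was relative to 20 uM Triacsin C.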
Background: qHTS replaces the single test concentration by a dilution series.

Where [1] appears, read: measured here: lipid fluorescence (Fed channel) AC50, cells fed with added oleic acid.
Setting [2] is: measured here: cell number channel AC50, cells fed with added oleic acid.

For orientation: AC50 means the concentration at which the activity in the assay is half-maximal. Low readings indicate greater potency, high ones weaker potency.

With `O=C(Nc1nc(-c2ccccc2)cs1)c1cccnc1`, the cell number change amounted to 20.1%.
Consider `COc1ccc(OCC(=O)NNC(=S)NC(=O)C2CC2)cc1`, for which the cell number change came to 14.4%. The half-maximal activity concentration (AC50) under setting [1] was 29.1 µM [rising, single point].
As to `COc1ccc(Cl)cc1NC(=O)CN(C)C(C)C(=O)NC(=O)NC1CCCCC1` (centres undefined), the cell number change is 150%. Further, the AC50 under setting [2] is 18.4 µM [rising, single point].
As for `COc1cccc(NC(=O)CNC(=O)[C@@H]2Cc3ccccc3CN2C(=O)OC(C)(C)C)c1`, the cell number change was -11.6%.
As for `COc1ccc(NC(=O)CN(c2ccc(OC)c(Cl)c2)S(=O)(=O)c2ccccc2)cc1`, the cell number change was -25.9%. Further, the AC50 under setting [1] is 29.1 µM [falling, single point].
With `COc1ccc(N=C2SC(C(=O)Nc3ccc(OC)cc3)CC(=O)N2CCN2CCOCC2)cc1` (centres undefined), the cell number change worked out at 16.2%. The AC50 under setting [1] was 16.4 µM [rising, single point].
On to `Cc1cc(=O)n2c(c1C#N)SC1CCCCC12O` (centres undefined), for which the cell number change was 2.2%.
As to `Cc1cc2cc(CN(CC3CCCO3)C(=S)Nc3ccccc3)c(=O)[nH]c2cc1C` (centres undefined), the cell number change was -1.59%. Moreover, the AC50 under setting [2] was 1.3 µM [falling, full curve, poor fit]. Also, the half-maximal activity concentration (AC50) under setting [1] is 1.3 µM [rising, partial curve].
Consider `O=c1c(C(c2ccc(Cl)cc2)c2c(O)nc3n(c2=O)CCCS3)c(O)nc2n1CCCS2`, for which the cell number change was -10.8%. The AC50 under setting [1] is 4.61 µM [rising, single point].
As to `COc1ccc(/C=C/C(=O)N2CCN(c3ccccn3)CC2)cc1`, the cell number change is 24.1%. Also, the AC50 under setting [2] was 1.03 µM [rising, full curve, poor fit].
`C=CCNC(=O)C12CCC(C)(C(=O)[C@H]1Br)C2(C)C` (some centres undefined): the cell number change was -11.4%. Besides, the AC50 under setting [1] was 0.116 µM [falling, full curve, poor fit].
`C=CCN(Cc1cc(OC)ccc1OC)S(=O)(=O)N(C)C`: the cell number change is -30.8%. In addition, the AC50 under setting [2] was 6.51 µM [falling, single point]. The AC50 under setting [1] is 6.51 µM [falling, single point].
As for `CC(C)(C)NC(=O)CN(Cc1cccs1)C(=O)c1csnn1`, the cell number change turned out to be 6.01%. Further, the AC50 under setting [2] is 0.651 µM [falling, full curve, poor fit].
On to `Cc1cc(C)nc(NCCC(=O)O)n1`, for which the cell number change was -26.7%. Also, the AC50 under setting [2] is 0.82 µM [falling, full curve, poor fit].
Take `COc1ccc(CCNS(=O)(=O)c2ccc3c(c2)NC(=O)CO3)cc1OC`: the cell number change is -10.5%.
Regarding `CC(C)(C)c1ccc(C(=O)NCCCNC(=O)c2ccccn2)cc1`, the cell number change worked out at 8.57%. Also, the AC50 under setting [2] was 0.0651 µM [rising, full curve, poor fit].
With `COCCNC(=O)c1cccc(OC2CCN(Cc3ccc(F)c(OC)c3)CC2)c1`, the cell number change is 9.84%. Further, the AC50 under setting [1] is 1.16 µM [rising, full curve].
As to `CC(=O)N(CN1C(=O)C2CC=CCC2C1=O)c1cccc(Cl)c1` (centres undefined), the cell number change came to 3.55%. Moreover, the AC50 under setting [1] is 5.8 µM [rising, full curve].
Take `O=C(CN1CCN(S(=O)(=O)c2ccc(Cl)cc2)CC1)N1CCCC1`: the cell number change was -14.7%. Besides, the AC50 under setting [1] is 3.26 µM [falling, single point].
For the compound `O=C(CCC(=O)NC1CCCCC1)Nc1cccnc1`, the cell number change stood at 31.2%. Moreover, the AC50 under setting [1] was 29.1 µM [rising, single point].
For the compound `CN1/C(=C\C(=O)c2cccnc2)Sc2ccccc21`, the cell number change stood at 6.6%. Besides, the AC50 under setting [1] was 7.31 µM [rising, single point].
Turning to `CCCN(C(=O)COc1ccc(Cl)cc1Cl)c1c(N)n(Cc2ccccc2)c(=O)[nH]c1=O`, the cell number change is -17.2%. In addition, the AC50 under setting [1] is 1.12 µM [falling, full curve, poor fit].
Take `Nc1c(C(=O)c2ccccc2)sc2nsc(SCCN3CCOCC3)c12`: the cell number change is 5.12%. Besides, the AC50 under setting [1] was 20.6 µM [falling, single point].
`O=C(NC1CC(=O)N(c2cccc(F)c2)C1)C(=O)c1c[nH]c2ccccc12` (centres undefined): under setting [1], the concentration at half-maximal activity (AC50) is 4.11 µM [rising, partial curve, poor fit].
Regarding `COc1cccc(CCNC(=O)C2CCCN(c3ncnc4c3nc3n4CCCCC3)C2)c1OC` (centres undefined), the cell number change is 3.05%. Moreover, under setting [1], the AC50 was 6.51 µM [rising, single point].
Turning to `OCCC1CN(CC(c2ccccc2)c2ccccc2)CCN1C1CCCC1` (centres undefined), the cell number change was 0.959%.
With `Cc1ccc(S(=O)(=O)Nc2c(C)n(C)n(-c3ccccc3)c2=O)cc1C(=O)NCc1ccccn1`, the cell number change amounted to 27.7%. For the same compound, under setting [1], the AC50 is 29.1 µM [rising, single point].
With `CSc1ncc(C(=O)Nc2ccccc2C)c(C)n1`, the cell number change worked out at 3.55%. Further, the AC50 under setting [2] was 4.11 µM [rising, single point].
Turning to `CCN1C(=O)/C(=C\c2nc3ccccc3c(=O)n2-c2ccccc2)c2ccccc21`, the cell number change is -1.57%. In addition, under setting [1], the half-maximal activity concentration (AC50) was 29.1 µM [falling, single point].
`CC1CCN(c2nc(Cl)nc(Nc3ccc([N+](=O)[O-])cc3)n2)CC1`: the cell number change was found to be 5.04%. The AC50 under setting [2] is 0.366 µM [rising, partial curve, poor fit]. The AC50 under setting [1] was 0.366 µM [rising, partial curve, poor fit].
In the case of `O=C(CC1CCCCC1)NCc1ccc(F)cc1`, the cell number change came out at 8.67%.
Consider `CC(SC1CCCC1)C(=O)Nc1ccnn1C(C)C` (centres undefined), for which the cell number change was -17.6%. For the same compound, under setting [1], the AC50 is 0.0058 µM [falling, full curve, poor fit].
Consider `CC(NS(=O)(=O)c1cccc(C(=O)O)c1)C12CC3CC(CC(C3)C1)C2` (centres undefined), for which the cell number change is -17.6%.
With `CCCC(=O)NC1CCCc2c1cnn2-c1ccc(C)c(C)c1` (centres undefined), the cell number change is -53.9%. The AC50 under setting [2] was 1.64 µM [falling, full curve].
Take `COc1ccccc1C(CCN(Cc1cccs1)C(C)=O)c1ccco1` (centres undefined): the cell number change was -14.8%. The AC50 under setting [1] is 2.31 µM [rising, full curve, poor fit].
Consider `CC1CCCC(C)N1CC(C)(C)NS(=O)(=O)c1ccc(Cl)cc1` (centres undefined), for which the cell number change was -33.9%.
Turning to `COC(=O)/C(C#N)=C/c1c(N2CCCCCC2)nc2c(C)cccn2c1=O`, the cell number change was 30.6%. Besides, under setting [2], the AC50 was 14.6 µM [rising, single point]. Moreover, the AC50 under setting [1] was 0.58 µM [rising, single point].
For the compound `CCOc1ccc(-c2nnc(N(CC)C(=O)C3CCC3)s2)cc1`, the cell number change was 87.6%. Under setting [2], the AC50 is 29.1 µM [rising, single point]. Further, the AC50 under setting [1] is 0.13 µM [rising, full curve, poor fit].
With `COc1ccc(OC)c(NC(=O)C(C)N2c3cccc4cccc(c34)S2(=O)=O)c1` (centres undefined), the AC50 reads like this: under setting [2], 6.51 µM [rising, single point]; under setting [1], 3.16 µM [falling, partial curve, poor fit].
